This test concerns the target BSA (bovine serum albumin) (bovine) (UniProt P02769). Description: ELISA; FGF9 (WT or mutant) or BSA alone coated on 96-well plates, blocked with heat-treated BSA; soluble αvβ3 (1 μg/mL) in Tyrode-HEPES buffer with 1 mM Mn2+, 1 h, room temperature; bound αvβ3 detected with anti-β3 (mAb AV10) and HRP anti-mouse IgG; both purified. (In an ELISA, binding on a coated surface is turned into a signal by an enzyme label.)

Chains of the proteins cited; added tags and fusions are not shown. Lines headed by an entry give the natural chain unless they say otherwise; changes in a name come on top. Residues count along the entry.
UniProt P02769, residues 25-607: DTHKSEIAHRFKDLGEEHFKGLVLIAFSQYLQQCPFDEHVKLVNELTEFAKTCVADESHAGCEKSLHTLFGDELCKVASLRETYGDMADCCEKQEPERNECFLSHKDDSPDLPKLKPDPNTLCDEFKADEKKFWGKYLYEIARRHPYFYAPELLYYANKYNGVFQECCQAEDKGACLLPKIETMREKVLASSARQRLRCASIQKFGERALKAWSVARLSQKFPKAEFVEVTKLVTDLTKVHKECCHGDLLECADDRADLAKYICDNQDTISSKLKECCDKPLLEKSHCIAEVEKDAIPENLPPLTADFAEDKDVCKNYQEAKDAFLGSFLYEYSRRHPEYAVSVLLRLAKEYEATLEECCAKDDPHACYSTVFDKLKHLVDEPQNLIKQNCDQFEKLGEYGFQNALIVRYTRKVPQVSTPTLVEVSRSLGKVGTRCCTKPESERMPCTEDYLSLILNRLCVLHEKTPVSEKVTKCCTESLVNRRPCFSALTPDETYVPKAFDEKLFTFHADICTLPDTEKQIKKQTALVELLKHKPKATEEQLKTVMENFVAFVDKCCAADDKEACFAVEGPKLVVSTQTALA
UniProt P06756: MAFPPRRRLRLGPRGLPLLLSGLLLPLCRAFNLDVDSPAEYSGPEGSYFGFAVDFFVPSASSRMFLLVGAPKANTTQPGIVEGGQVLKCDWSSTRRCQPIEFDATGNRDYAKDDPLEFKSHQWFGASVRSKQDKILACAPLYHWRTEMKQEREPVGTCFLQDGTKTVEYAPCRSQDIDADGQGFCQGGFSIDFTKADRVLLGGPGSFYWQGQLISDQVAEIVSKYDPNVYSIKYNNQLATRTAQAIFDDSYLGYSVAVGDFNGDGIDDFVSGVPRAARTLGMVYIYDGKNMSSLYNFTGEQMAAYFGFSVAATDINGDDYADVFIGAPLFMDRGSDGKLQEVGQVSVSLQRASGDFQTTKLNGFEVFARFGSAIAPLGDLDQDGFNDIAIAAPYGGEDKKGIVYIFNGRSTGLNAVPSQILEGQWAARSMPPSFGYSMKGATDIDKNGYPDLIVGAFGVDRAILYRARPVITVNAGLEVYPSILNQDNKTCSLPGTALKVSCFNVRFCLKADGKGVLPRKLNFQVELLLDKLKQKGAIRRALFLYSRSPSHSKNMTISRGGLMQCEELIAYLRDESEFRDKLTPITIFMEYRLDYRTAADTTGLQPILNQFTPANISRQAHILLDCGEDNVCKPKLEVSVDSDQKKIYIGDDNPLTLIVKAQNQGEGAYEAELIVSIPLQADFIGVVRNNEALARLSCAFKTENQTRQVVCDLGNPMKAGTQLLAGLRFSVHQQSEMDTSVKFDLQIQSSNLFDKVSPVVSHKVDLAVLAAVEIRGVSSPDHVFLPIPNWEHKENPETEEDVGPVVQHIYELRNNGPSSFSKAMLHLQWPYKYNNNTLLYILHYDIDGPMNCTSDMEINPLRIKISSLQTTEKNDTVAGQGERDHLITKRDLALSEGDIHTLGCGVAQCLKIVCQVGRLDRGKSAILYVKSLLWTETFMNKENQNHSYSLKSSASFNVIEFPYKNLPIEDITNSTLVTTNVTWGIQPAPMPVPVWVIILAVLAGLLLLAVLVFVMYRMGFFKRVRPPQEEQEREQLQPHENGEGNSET

These are yes or no findings as the source states them, for the method shown.

In the case of “soluble integrin αvβ3 (extracellular domains) (from UniProt P06756 31-992; P05106 27-718) (receptor)”, the binding result is recorded as “no binding (tested: 1 μg/mL)”.

Values taken from article PMC10887216.
